Some results were stated once for a whole list of compounds, not compound by compound.
Tests used:
[1] = test system: nitric oxide (NO) produced in mouse BV-2 microglia cells stimulated with LPS; assay: NO production inhibition in LPS-stimulated BV-2 microglia cells (Griess reagent); format: cell-based; conditions: BV-2 cells, concentrations 1.25 to 200 μM (FIGS. 31A, 31C, 32A, 32C, 33A, 34B)
Method: BV-2 microglia cells were cultured in a humidified 5% CO2 incubator at 37° C. using a Dulbecco's modified Eagle medium supplemented with 5% fetal bovine serum and 1% penicillin/streptomycin at 100 units/mL.
In all experiments, the number of cells was 2.5×10^5 cell/ml, the cells were first treated with each of Compounds of Examples 1 to 25 by concentration (2.5 to 200 μg/ml), and LPS was diluted in medium and used at a concentration of 200 ng/ml. A cytotoxicity test was performed using MTT assay, and the MTT assay was performed by performing NO assay and injecting 30 μl of MTT at a concentration of 0.5 mg/ml into the cells in a microplate. After reacting for 2 hours in the incubator, formazan crystals were dissolved in 100 μl of DMSO, and the absorbance was measured using a Vmax microplate reader (Tencan Co., Switzerland) with a wavelength of 540 nm. In order to quantitatively measure the production of nitric oxide (NO), mouse BV-2 microglia cells were prepared in a microplate (96 well), and added with LPS (200 ng/ml) and Compounds by concentration (2.5 to 200 μg/ml). The cells reacted in an incubator for 24 h, and 50 μl of the supernatant reacted with a Griess reagent (a mixed solution of 1% sulfanilamide, 0.1% N-(1-naphthyl)-ethylenediamine dihydrochloride, and 2.5% H3PO4), and then the absorbance was measured using a Vmax 96-well microplate spectrophotometer with a wavelength of 550 nm.
In order to analyze the anti-inflammatory efficacy of Compound of Example 1, the concentration inhibitory effect of nitric oxide (NO) produced in mouse BV-2 microglia cells stimulated with LPS (200 ng/ml), a neuroinflammatory factor, was confirmed.
The neuroinflammation inhibitory effects of Compounds of Examples 2 to 25 were confirmed.
In order to analyze the anti-inflammatory efficacy of Compound 26 of Chemical Formula 2, the concentration inhibitory effect of nitric oxide (NO) produced in mouse BV-2 microglia cells stimulated with LPS (200 ng/ml), a neuroinflammatory factor, was confirmed. Compound 26 of Chemical Formula 2 was purchased from Santa Cruz biotechnology (CAS 79127-35-8) and the experiment was performed. As a result of treating Compound of Chemical Formula 2 at […], it was confirmed that the amount of nitric oxide (NO) was reduced, as shown in FIG. 37A.

BV-2 microglia cells = assay: Cytotoxicity test (MTT assay) in BV-2 microglia cells; format: cell-based, mouse; conditions: BV-2 cells, concentrations 1.25 to 200 μM

Structure (SMILES)	NO production [1]	cytotoxicity (MTT assay) (BV-2 microglia cells)
CC(=O)OCC1=C[C@H]2[C@@H]3C=C[C@H]2C(=O)O[C@@H]3O1 [Compound 2, ((1S,4aS,5R,7aS)-8-oxo-1,4a,5,7a-tetrahydro-1,5-(epoxymethano)cyclopenta[c]pyran-3-yl)methyl acetate]	noticeably inhibited	did not show cytotoxicity
COCC1=C[C@H]2[C@@H]3C=C[C@H]2C(=O)O[C@@H]3O1 [Compound 3, (1S,4aS,5R,7aS)-3-(methoxymethyl)-1,4a,5,7a-tetrahydro-1,5-(epoxymethano)cyclopenta[c]pyran-8-one]	noticeably inhibited	did not show cytotoxicity
O=C(OCC1=C[C@H]2[C@@H]3C=C[C@H]2C(=O)O[C@@H]3O1)c1ccc(Br)cc1 [Compound 4, ((1S,4aS,5R,7aS)-8-oxo-1,4a,5,7a-tetrahydro-1,5-(epoxymethano)cyclopenta[c]pyran-3-yl)methyl 4-bromobenzoate]	noticeably inhibited	did not show cytotoxicity
O=C(O)C1=C[C@H]2[C@@H]3C=C[C@H]2C(=O)O[C@@H]3O1 [Compound 5, (1S,4aS,5R,7aS)-8-oxo-1,4a,5,7a-tetrahydro-1,5-(epoxymethano)cyclopenta[c]pyran-3-carboxylic acid]	noticeably inhibited	did not show cytotoxicity
O=CC1=C[C@H]2[C@@H]3C=C[C@H]2C(=O)O[C@@H]3O1 [Compound 6, (1S,4aS,5R,7aS)-8-oxo-1,4a,5,7a-tetrahydro-1,5-(epoxymethano)cyclopenta[c]pyran-3-carbaldehyde]	noticeably inhibited	did not show cytotoxicity
O=C(OCC1=C[C@H]2[C@@H]3C=C[C@H]2C(=O)O[C@@H]3O1)c1ccccc1 [Compound 7, ((1S,4aS,5R,7aS)-8-oxo-1,4a,5,7a-tetrahydro-1,5-(epoxymethano)cyclopenta[c]pyran-3-yl)methyl benzoate]	noticeably inhibited	did not show cytotoxicity
C=CCCCCCCCCC(=O)OCC1=C[C@H]2[C@@H]3C=C[C@H]2C(=O)O[C@@H]3O1 [Compound 8, ((1S,4aS,5R,7aS)-8-oxo-1,4a,5,7a-tetrahydro-1,5-(epoxymethano)cyclopenta[c]pyran-3-yl)methylundec-10-enoate]	noticeably inhibited	did not show cytotoxicity
CCC(C)C(=O)OCC1=C[C@H]2[C@@H]3C=C[C@H]2C(=O)O[C@@H]3O1 (stereo partly drawn) [Compound 9, ((1S,4aS,5R,7aS)-8-oxo-1,4a,5,7a-tetrahydro-1,5-(epoxymethano)cyclopenta[c]pyran-3-yl)methyl 2-methyl butanoate]	noticeably inhibited	did not show cytotoxicity
Cc1ccc(C(=O)OCC2=C[C@H]3[C@@H]4C=C[C@H]3C(=O)O[C@@H]4O2)cc1 [Compound 10, ((1S,4aS,5R,7aS)-8-oxo-1,4a,5,7a-tetrahydro-1,5-(epoxymethano)cyclopenta[c]pyran-3-yl)methyl 4-methyl benzoate]	noticeably inhibited	did not show cytotoxicity
COc1ccc(C(=O)OCC2=C[C@H]3[C@@H]4C=C[C@H]3C(=O)O[C@@H]4O2)cc1 [Compound 11, ((1S,4aS,5R,7aS)-8-oxo-1,4a,5,7a-tetrahydro-1,5-(epoxymethano)cyclopenta[c]pyran-3-yl)methyl 4-methoxybenzoate]	noticeably inhibited	did not show cytotoxicity
O=C(OCC1=C[C@H]2[C@@H]3C=C[C@H]2C(=O)O[C@@H]3O1)c1ccc(-c2ccccc2)cc1 [Compound 12, ((1S,4aS,5R,7aS)-8-oxo-1,4a,5,7a-tetrahydro-1,5-(epoxymethano)cyclopenta[c]pyran-3-yl)methyl [1,1′-biphenyl]-4-carboxylate]	noticeably inhibited	did not show cytotoxicity
O=C(OCC1=C[C@H]2[C@@H]3C=C[C@H]2C(=O)O[C@@H]3O1)c1ccc2ccccc2c1 [Compound 13, ((1S,4aS,5R,7aS)-8-oxo-1,4a,5,7a-tetrahydro-1,5-(epoxymethano)cyclopenta[c]pyran-3-yl)methyl 2-naphthoate]	noticeably inhibited	did not show cytotoxicity
C#CC(=O)OCC1=C[C@H]2[C@@H]3C=C[C@H]2C(=O)O[C@@H]3O1 [Compound 14, ((1S,4aS,5R,7aS)-8-oxo-1,4a,5,7a-tetrahydro-1,5-(epoxymethano)cyclopenta[c]pyran-3-yl)methyl propiolate]	noticeably inhibited	did not show cytotoxicity
C#CC/N=C/C1=C[C@H]2[C@@H]3C=C[C@H]2C(=O)O[C@@H]3O1 [Compound 15, (1S,4aS,5R,7aS)-3-((E)-(prop-2-yn-1-ylimino)methyl)-1,4a,5,7a-tetrahydro-1,5-(epoxymethano)cyclopenta[c]pyran-8-one]	noticeably inhibited	did not show cytotoxicity
O=C(OCC1=C[C@H]2[C@@H]3C=C[C@H]2C(=O)O[C@@H]3O1)c1cccc2c1-c1ccccc1C2=O [Compound 16, ((1S,4aS,5R,7aS)-8-oxo-1,4a,5,7a-tetrahydro-1,5-(epoxymethano)cyclopenta[c]pyran-3-yl)methyl 9-oxo-9H-fluorene-4-carboxylate]	noticeably inhibited	did not show cytotoxicity
O=C(OCC1=C[C@H]2[C@@H]3C=C[C@H]2C(=O)O[C@@H]3O1)c1cc2ccccc2o1 [Compound 17, ((1S,4aS,5R,7aS)-8-oxo-1,4a,5,7a-tetrahydro-1,5-(epoxymethano)cyclopenta[c]pyran-3-yl)methyl benzofuran-2-carboxylate]	noticeably inhibited	did not show cytotoxicity
O=C(OCC1=C[C@H]2[C@@H]3C=C[C@H]2C(=O)O[C@@H]3O1)c1ccc(F)cc1 [Compound 18, ((1S,4aS,5R,7aS)-8-oxo-1,4a,5,7a-tetrahydro-1,5-(epoxymethano)cyclopenta[c]pyran-3-yl)methyl 4-fluorobenzoate]	noticeably inhibited	did not show cytotoxicity
O=C(OCC1=C[C@H]2[C@@H]3C=C[C@H]2C(=O)O[C@@H]3O1)c1ccc(Cl)cc1 [Compound 19, ((1S,4aS,5R,7aS)-8-oxo-1,4a,5,7a-tetrahydro-1,5-(epoxymethano)cyclopenta[c]pyran-3-yl)methyl 4-chlorobenzoate]	noticeably inhibited	did not show cytotoxicity
O=C(OCC1=C[C@H]2[C@@H]3C=C[C@H]2C(=O)O[C@@H]3O1)c1ccc(I)cc1 [Compound 20, ((1S,4aS,5R,7aS)-8-oxo-1,4a,5,7a-tetrahydro-1,5-(epoxymethano)cyclopenta[c]pyran-3-yl)methyl 4-iodobenzoate]	noticeably inhibited	did not show cytotoxicity
O=C(OCC1=C[C@H]2[C@@H]3C=C[C@H]2C(=O)O[C@@H]3O1)c1ccc([N+](=O)[O-])cc1 [Compound 21, ((1S,4aS,5R,7aS)-8-oxo-1,4a,5,7a-tetrahydro-1,5-(epoxymethano)cyclopenta[c]pyran-3-yl)methyl 4-nitrobenzoate]	noticeably inhibited	did not show cytotoxicity
O=C1O[C@@H]2OC(CI)=C[C@H]3[C@@H]2C=C[C@@H]13 [Compound 22, (1S,4aS,5R,7aS)-3-(iodomethyl)-1,4a,5,7a-tetrahydro-1,5-(epoxymethano)cyclopenta[c]pyran-8-one]	noticeably inhibited	did not show cytotoxicity
O=C1O[C@@H]2OC(CBr)=C[C@H]3[C@@H]2C=C[C@@H]13 [Compound 23, (1S,4aS,5R,7aS)-3-(bromomethyl)-1,4a,5,7a-tetrahydro-1,5-(epoxymethano)cyclopenta[c]pyran-8-one]	noticeably inhibited	did not show cytotoxicity

Source: US20250034164A1, “NOVEL COMPOUND AND COMPOSITION FOR PREVENTING OR TREATING NEUROINFLAMMATORY BRAIN DISEASES COMPRISING SAME AS ACTIVE INGREDIENT” (KOREA INSTITUTE OF OCEAN SCIENCE & TECHNOLOGY, priority 2021, published 2025)
